# Results reported in publication PMC12036249.
# By UniProt entry, the sequences of proteins in these tests, tags left out.
# UniProt O95863: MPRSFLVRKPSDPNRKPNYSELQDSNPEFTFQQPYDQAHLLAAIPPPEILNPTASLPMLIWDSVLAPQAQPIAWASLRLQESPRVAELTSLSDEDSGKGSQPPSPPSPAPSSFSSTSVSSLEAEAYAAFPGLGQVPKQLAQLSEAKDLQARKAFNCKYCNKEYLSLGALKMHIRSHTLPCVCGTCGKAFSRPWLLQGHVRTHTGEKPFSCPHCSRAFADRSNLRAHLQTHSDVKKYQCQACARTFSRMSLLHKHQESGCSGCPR
# UniProt Q14289: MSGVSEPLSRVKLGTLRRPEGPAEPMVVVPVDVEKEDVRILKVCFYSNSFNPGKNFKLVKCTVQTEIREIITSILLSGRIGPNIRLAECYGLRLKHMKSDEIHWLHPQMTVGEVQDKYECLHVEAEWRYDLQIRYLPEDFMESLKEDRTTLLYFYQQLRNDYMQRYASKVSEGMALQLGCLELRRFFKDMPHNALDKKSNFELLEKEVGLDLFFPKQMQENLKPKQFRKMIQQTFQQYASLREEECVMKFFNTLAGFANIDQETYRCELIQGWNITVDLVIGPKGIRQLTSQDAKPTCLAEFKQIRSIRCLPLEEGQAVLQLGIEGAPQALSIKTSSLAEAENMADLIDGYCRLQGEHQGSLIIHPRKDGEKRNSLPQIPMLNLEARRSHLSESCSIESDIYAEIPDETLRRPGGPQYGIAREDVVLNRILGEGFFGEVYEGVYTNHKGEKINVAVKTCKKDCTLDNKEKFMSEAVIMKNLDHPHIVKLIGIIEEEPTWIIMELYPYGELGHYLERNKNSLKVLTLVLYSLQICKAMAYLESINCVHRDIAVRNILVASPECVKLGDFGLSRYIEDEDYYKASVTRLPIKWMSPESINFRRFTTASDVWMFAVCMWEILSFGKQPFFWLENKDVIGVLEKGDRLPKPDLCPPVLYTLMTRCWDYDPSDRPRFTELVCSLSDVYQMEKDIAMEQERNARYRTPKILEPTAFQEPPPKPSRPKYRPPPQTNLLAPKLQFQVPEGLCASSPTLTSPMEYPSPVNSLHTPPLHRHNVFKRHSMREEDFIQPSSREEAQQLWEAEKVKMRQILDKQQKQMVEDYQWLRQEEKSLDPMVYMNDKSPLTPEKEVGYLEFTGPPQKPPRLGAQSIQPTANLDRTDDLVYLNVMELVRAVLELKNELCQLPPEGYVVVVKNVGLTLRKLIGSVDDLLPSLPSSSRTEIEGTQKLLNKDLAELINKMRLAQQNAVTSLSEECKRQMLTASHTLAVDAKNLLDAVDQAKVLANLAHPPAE
# Results are given in words; binding and its absence hold for the method and conditions named. Binding seen in cells or lysates may run through a third protein. Some entries that bind do so weakly or less than the wild type.
# Legend:
# HA-tagged Snail1 = HA-tagged Snail1 (UniProt O95863); assay: co-IP; Flag-PYK2 and HA-Snail1 co-transfected into HEK293T cells; lysate in IP lysis buffer; immunoprecipitation with anti-HA agarose (Fig. 3A) or anti-Flag agarose (Fig. 3B), overnight at 4 °C, beads washed more than five times, Western blot
# [1] = target: Flag-tagged PYK2 (proline-rich tyrosine kinase 2) (UniProt Q14289); assay: as above
# [2] = target: endogenous Snail1 (human (endogenous in 11Z)) (UniProt O95863); assay: co-IP; endogenous proteins in 11Z cell lysate; immunoprecipitation with anti-Snail1 (Fig. 3C) or anti-PYK2 (Fig. 3D) antibody and Protein A/G agarose beads, overnight at 4 °C, Western blot
# [3] = target: endogenous PYK2 (human (endogenous in 11Z)) (UniProt Q14289); assay: as above
substance,measurement,setting,value
Flag-tagged PYK2 (proline-rich tyrosine kinase 2) (from UniProt Q14289 1-1009) (enzyme),binding,HA-tagged Snail1,binds
HA-tagged Snail1 (from UniProt O95863 1-264),binding,[1],binds
endogenous PYK2 (from UniProt Q14289 1-1009) (enzyme),binding,[2],binds
endogenous Snail1 (from UniProt O95863 1-264),binding,[3],binds
